Test system: swine model of myocardial ischemia
Conditions: 0.3 mg/kg i.v. at 15 min of ischemia; 30, 60 and 90 min after MI induction; vs controls
Text: Cardiac rhythm, arterial oxymetry, and arterial pressure were continuously monitored during the procedure. Just before starting the procedure a perfusion of amiodarone and lidocaine was initiated as prophylaxis for malignant left ventricular arrhythmias. All animals of the study were subjected to the same antiarrhythmic pharmacological approach allowing a direct comparison between the groups. By percutaneous approach and fluoroscopy guidance ischemia was induced by complete coronary balloon occlusion of the mid-left anterior descending coronary artery. Contrast angiographies were performed to ensure total coronary occlusion.
Control animals were given intravenous placebo (saline) at 15 min of ischemia. Blood samples (serum) for further assessment of biomarkers of cardiac damage were taken at baseline (i.e. before MI induction or at time=0 min), and at 30 min, 60 min and 90 min after MI induction (ischemia).
Upon taking the 90 min blood sample, the pigs were sacrificed without reperfusion to obtain myocardial tissue for molecular studies and histology.
The concentration of IMA (Ischemic Modified Albumin), CFABP (Cardiac Fatty Acid Binding Protein) and Myoglobin was determined by the respective pig ELISA kits in the blood samples taken 30 min, 60 min and 90 min after MI induction and compared to their baseline values (prior to ischemia induction). […]

## CC(C)c1c(C(=O)Nc2ccccc2)c(-c2ccccc2)c(-c2ccc(F)cc2)n1CC[C@@H](O)C[C@@H](O)CC(=O)O [atorvastatin]
  CFABP (Cardiac Fatty Acid Binding Protein) blood levels: significantly reduced

Reference: patent US20200030288A1, “STATIN FOR PREVENTION/REDUCTION OF ISCHEMIA-RELATED DAMAGE” (Fundacio Institut De Recerca De L'Hospial De La Santa Creu …, priority 2017, published 2020)
